The full ranking holds about 1,600 compounds; the median of “Hit score” is about 0.13, and the highest 2% start at about 0.46. The list shows a part of the results. Where a SMILES comes first, the peptide text is derived from it. [ ]: non-standard residue; d: D form. pGlu = O=C1CC[C@@H](C(=O)O)N1; Thz = O=C(O)[C@@H]1CSCN1

The values below come from ChEMBL document CHEMBL4303122, “Identification of potential treatments for COVID-19 through artificial intelligence-enabled phenomic analysis of human cells infected with SARS-CoV-2” (2020).

This experiment has as its system SARS-CoV-2. As to the kind of experiment: Antiviral activity against SARS-CoV-2 (USA-WA1/2020 strain) measured by imaging in HRCE cells at MOI 0.4 after 96 hrs (reported as hit score from 0-1 for on-disease vs off-disease activity: scores >0.6 considered hits). The experiment is classed as functional, Homo sapiens.
Compound `CCOc1nc2cccc(C(=O)O)c2n1Cc1ccc(-c2ccccc2-c2nnn[nH]2)cc1` yielded a Hit score of 0.1663.
In turn, `CC[C@H](C)[C@H](N)C(=O)O` [ISOLEUCINE] displayed a Hit score of 0.09121.
Compound `NC(=O)c1cc([N+](=O)[O-])cc([N+](=O)[O-])c1` [NITROMIDE] came in with a Hit score of 0.1568.
As for `O=c1[nH]c2ccccc2n1CCN1CCN(c2cccc(C(F)(F)F)c2)CC1` [FLIBANSERIN], the figure is 0.2785; as for `O=C1CC[C@@H](C(=O)N2CSC[C@H]2C(=O)O)N1` [PIDOTIMOD] ([pGlu]-[Thz]-OH), 0.2479; as for `NC(=O)[C@@H]1CC[C@@H]2CN1C(=O)N2OS(=O)(=O)[O-].[Na+]` [AVIBACTAM SODIUM], 0.2969.
`COC(=O)C1=C(C)NC(C)=C(C(=O)OC(C)(C)CN(C)CCC(c2ccccc2)c2ccccc2)C1c1cccc([N+](=O)[O-])c1` (stereo not given) [LERCANIDIPINE] yielded a Hit score of -0.07328.
Regarding `CN1CCN(C(=O)O[C@H]2c3nccnc3C(=O)N2c2ccc(Cl)cn2)CC1` [ESZOPICLONE], the Hit score turned out to be 0.1911.
Regarding `CCC1(c2ccccc2)C(=O)NCNC1=O` [PRIMIDONE], the Hit score is 0.2656.
On to `CCCCc1oc2ccc(NS(C)(=O)=O)cc2c1C(=O)c1ccc(OCCCN(CCCC)CCCC)cc1` [DRONEDARONE], for which the Hit score stood at 0.03796.
Next, `COc1cc(Nc2c(C#N)cnc3cc(OCCCN4CCN(C)CC4)c(OC)cc23)c(Cl)cc1Cl` [BOSUTINIB]: 0.09732; `O=C(c1ccc(F)cc1)C1CCN(CCn2c(=O)[nH]c3ccccc3c2=O)CC1` [KETANSERIN]: 0.2986.
`CCCCCCCC/C=C/CCCCCCCC(=O)OC[C@H]1O[C@@H](n2ccc(N)nc2=O)C(F)(F)[C@@H]1O` [GEMCITABINE ELAIDATE] had a Hit score of 0.08488.
`CC(N)Cc1ccc(O)cc1` (stereo not given) [HYDROXYAMPHETAMINE]: the Hit score was 0.1217.
The compound `Clc1ccc2c(c1)CCc1cccnc1C2=C1CCNCC1` [DESLORATADINE] came in with a Hit score of 0.003338.
The compound `CCS(=O)(=O)N1CC(CC#N)(n2cc(-c3ncnc4[nH]ccc34)cn2)C1` [BARICITINIB] returned a Hit score of 0.05063.
Next, `NCC(CC(=O)O)c1ccc(Cl)cc1` (stereo not given) [BACLOFEN]: 0.3217; `CCC(CC)[C@H](NC(C)=O)[C@@H]1[C@H](O)[C@@H](C(=O)O)C[C@H]1NC(=N)N` [PERAMIVIR ANHYDROUS]: 0.03535; `CCCOc1ccc2[nH]c(NC(=O)OC)nc2c1` [OXIBENDAZOLE]: 0.2495.
Consider `Cc1cc2nc3c(=O)[nH]c(=O)nc-3n(C[C@H](O)[C@H](O)[C@H](O)CO)c2cc1C` [RIBOFLAVIN], for which the Hit score is recorded as 0.1705.
Consider `CC1(C)OC[C@@H](COC(=O)CCc2ccc(OC[C@@H](O)CNCCNC(=O)N3CCOCC3)cc2)O1` [LANDIOLOL], for which the Hit score was determined as 0.1908.
As for `CN1CCC2=C(C1)c1ccccc1Cc1ccccc12` [SETIPTILINE], the figure is 0.04395; as for `Clc1cccc(Cl)c1NC1=NCCN1` [CLONIDINE], 0.1651.
The compound `CO[C@H]1/C=C/O[C@@]2(C)Oc3c(C)c(O)c4c(O)c(c5c(nc6cc(C)ccn65)c4c3C2=O)NC(=O)/C(C)=C\C=C\[C@H](C)[C@H](O)[C@@H](C)[C@@H](O)[C@@H](C)[C@H](OC(C)=O)[C@@H]1C` [RIFAXIMIN] displayed a Hit score of 0.2244.
As to `Cc1ncc(CO)c(C=O)c1O` [PYRIDOXAL], the Hit score is listed as 0.2466.
`CCCNC(=O)NS(=O)(=O)c1ccc(Cl)cc1` [CHLORPROPAMIDE] displayed a Hit score of 0.2087.
As for `CC(C)(S)C(=O)N[C@@H](CS)C(=O)O` [BUCILLAMINE], the figure is 0.1477.
On to `OC[C@@H](O)C(O)[C@@H](O)CO` (stereo not given in full), for which the Hit score was found to be 0.1332.
Compound `Cc1cnc(Nc2ccc(OCCN3CCCC3)cc2)nc1Nc1cccc(S(=O)(=O)NC(C)(C)C)c1` [FEDRATINIB] registered a Hit score of -0.003207.
As to `Cn1ncnc1[C@H]1c2n[nH]c(=O)c3cc(F)cc(c23)N[C@@H]1c1ccc(F)cc1` [TALAZOPARIB], the Hit score is listed as 0.1593.
With `CNCCc1ccccn1` [BETAHISTINE], the Hit score is given as 0.1802.
Turning to `Cc1nc2c([nH]1)-c1ccccc1N(C(=O)c1ccc(NC(=O)c3ccccc3-c3ccccc3)cc1)CC2` [CONIVAPTAN], the Hit score was 0.2311.
Compound `CC=CC(=O)N(CC)c1ccccc1C` had a Hit score of 0.08702.
`CN(C)C(=N)NC(=N)N` [METFORMIN] had a Hit score of -0.02581.
In the case of `C=C1/C(=C\C=C2/CCC[C@]3(C)[C@@H]([C@H](C)/C=C/[C@H](C)C(C)C)CC[C@@H]23)C[C@@H](O)C[C@@H]1O` [DOXERCALCIFEROL], the Hit score is given as 0.4621.
The compound `Nc1nc2c(ncn2COC(CO)CO)c(=O)[nH]1` [GANCICLOVIR] registered a Hit score of 0.1061.
Compound `CC(NC(C)(C)C)C(=O)c1cccc(Cl)c1` (stereo not given) [BUPROPION] returned a Hit score of 0.1506.
Turning to `Cc1cccc(C)c1OCC(=O)N[C@@H](Cc1ccccc1)[C@@H](O)C[C@H](Cc1ccccc1)NC(=O)[C@H](C(C)C)N1CCCNC1=O` [LOPINAVIR], the Hit score worked out at 0.05208.
Take `O=C1Nc2ccc(Cl)cc2[C@@](C#CC2CC2)(C(F)(F)F)O1` [EFAVIRENZ]: the Hit score was 0.3102.
Turning to `COc1cccc(OC)c1C(=O)N[C@@H]1C(=O)N2[C@@H]1SC(C)(C)[C@@H]2C(=O)O` [METHICILLIN], the Hit score is reported as 0.05096.
For `Nc1ccc(C(=O)O)c(O)c1` [AMINOSALICYLIC ACID], the Hit score was determined as 0.1701.
With `OCCN1CCN(CC/C=C2/c3ccccc3Sc3ccc(Cl)cc32)CC1` [ZUCLOPENTHIXOL], the Hit score was 0.1545.
With `CN1CCC(=C2c3ccccc3CCn3c(C=O)cnc32)CC1` [ALCAFTADINE], the Hit score came out at 0.08654.
Take `C[N+]1(CC2CC2)CC[C@]23c4c5ccc(O)c4O[C@H]2C(=O)CC[C@@]3(O)[C@H]1C5` (stereo not given in full) [METHYLNALTREXONE]: the Hit score is recorded as 0.1187.
Compound `Nc1ccn(C[C@@H](CO)OCP(=O)(O)O)c(=O)n1.O.O` [CIDOFOVIR] showed a Hit score of 0.01896.
`Nc1ccc(/N=N/c2ccccc2)c(N)n1` [PHENAZOPYRIDINE] displayed a Hit score of 0.2186.
`CCC1(C)CC(=O)NC1=O` (stereo not given) [ETHOSUXIMIDE]: the Hit score came out at 0.1367.
On to `C[C@H](Nc1ncnc2nc[nH]c12)c1cc2cccc(Cl)c2c(=O)n1-c1ccccc1` [DUVELISIB], for which the Hit score worked out at 0.6035.
Turning to `CC(NCCc1ccc(O)cc1)C(O)c1ccc(O)cc1` (stereo not given) [RITODRINE], the Hit score was -0.06425.
`C[N+](C)(CCOc1ccccc1)Cc1ccccc1.O=C([O-])c1cc2ccccc2cc1O` [BEPHENIUM HYDROXYNAPHTHOATE] yielded a Hit score of 0.2695.
Turning to `C=C[C@H]1CN2CC[C@H]1C[C@@H]2[C@@H](O)c1ccnc2ccc(OC)cc12` [QUINIDINE], the Hit score is on record as 0.3909.
Compound `O=c1c2ccccc2[se]n1-c1ccccc1` [EBSELEN] gave a Hit score of 0.2275.
For the compound `O=S(=O)(c1cccc2cnccc12)N1CCCNCC1` [FASUDIL], the Hit score was 0.1213.
`O=C(c1ccc(F)c(F)c1Nc1ccc(I)cc1F)N1CC(O)([C@@H]2CCCCN2)C1` [COBIMETINIB] gave a Hit score of -0.006789.
With `CO[C@H]1C[C@@H]2CC[C@@H](C)[C@@](O)(O2)C(=O)C(=O)N2CCCC[C@H]2C(=O)O[C@H]([C@H](C)C[C@@H]2CC[C@@H](OCCO)[C@H](OC)C2)CC(=O)[C@H](C)/C=C(\C)[C@@H](O)[C@@H](OC)C(=O)[C@H](C)C[C@H](C)/C=C/C=C/C=C/1C` [EVEROLIMUS], the Hit score was found to be 0.4984.
As to `CN[C@@H](C)[C@H](O)c1ccccc1.Cl` [EPHEDRINE HYDROCHLORIDE], the Hit score came out at 0.3718.
`CCCc1nn(C)c2c(=O)[nH]c(-c3cc(S(=O)(=O)N4CCN(C)CC4)ccc3OCC)nc12` registered a Hit score of 0.1151.
Next, `CCCCOC(=O)c1cc2c(cn1)[nH]c1ccccc12`: 0.2723.
As for `COC(=O)C[C@](O)(CCCC(C)(C)O)C(=O)O[C@@H]1C(OC)=C[C@]23CCCN2CCc2cc4c(cc2[C@H]13)OCO4` [OMACETAXINE MEPESUCCINATE], the figure is 0.04224.
As to `CC(C)OC(=O)[C@H](C)N[P@@](=O)(OC[C@H]1O[C@@H](n2ccc(=O)[nH]c2=O)[C@](C)(F)[C@@H]1O)Oc1ccccc1`, the Hit score came out at 0.2594.
In the case of `CN(C)CCc1c[nH]c2ccc(CS(=O)(=O)N3CCCC3)cc12` [ALMOTRIPTAN], the Hit score is recorded as 0.03586.
As for `CCCCc1ncc(/C=C(\Cc2cccs2)C(=O)O)n1Cc1ccc(C(=O)O)cc1` [EPROSARTAN], the figure is 0.09355; as for `N[C@@H](Cc1ccc(O)c(O)c1)C(=O)O` [LEVODOPA], 0.1611; as for `CN1CCN2c3ccccc3Cc3ccccc3C2C1` (stereo not given) [MIANSERIN], 0.2217.
`CCCCCCCCOc1ccccc1C(=O)Nc1ccc(C(=O)OCC[N+](C)(CC)CC)cc1` [OTILONIUM] came in with a Hit score of 0.1331.
As for `O=C(O)CCC(=O)c1ccc(-c2ccccc2)cc1` [FENBUFEN], the figure is 0.3282; as for `CC(OC(=O)NCC1(CC(=O)O)CCCCC1)OC(=O)C(C)C` (stereo not given) [GABAPENTIN ENACARBIL], 0.2724; as for `O=C1c2c(O)ccc(O)c2C(=O)c2c(NCCNCCO)ccc(NCCNCCO)c21` [MITOXANTRONE], 0.05299.
Next, `CCOC(=O)C1=C(C)NC(C)=C(C(=O)OC)C1c1cccc(Cl)c1Cl` (stereo not given) [FELODIPINE]: 0.04552; `CC(=O)O[C@H]1C[C@@H]2CC[C@@H]3[C@H](CC[C@@]4(C)[C@H]3C[C@H]([N+]3(C)CCCCC3)[C@@H]4OC(C)=O)[C@@]2(C)C[C@@H]1[N+]1(C)CCCCC1` [PANCURONIUM]: 0.09762.
